The campaign covered roughly 340,000 compounds. About 170 (0.05%) were called active. Inconclusive results, whose numbers are uncertain, are shown with a selection of clear calls. The call rests on the fitted dose curve; in most records, active means well fitted inhibition curve with a large enough effect in the signal ratio, with a control signal flat (not every such curve was filed as active); inconclusive means small, poorly fitted or top-dose-only effect, or effect the other way, or a change in a side signal; inactive means flat fitted curve, though single readings scatter; the % refers to the signal ratio. A potency beside an inconclusive call is a rough fit, not a confirmed value.
test: qHTS Assay to Find Inhibitors of Chronic Active B-Cell Receptor Signaling; settings: ABC-DLBCL IkBa-CBG/CBR reporter, luminescence ratio (green luciferase fused to IkBa over red control in TMD8 lymphoma cells), 4 h; activity change, negative = inhibition: at 46.1 µM (top of the series) unless noted;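 on activity change, negative = inhibition: plate controls were basal doxycycline-induced cells for no effect and cells given 10 µM MG132 for full effect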
Summary of the method: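 Concentration-response series (up to 46 uM) were applied to TMD8 dual-reporter cells for 4 h at 37C with doxycycline. Green/red ratio, after filter-overlap correction, defined %Activity; red signal alone was normalised to basal cells and zero luminescence.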
Potency means the concentration at half of the fitted maximal effect.

Structure (SMILES)	activity change, negative = inhibition	Potency
CC(C)N1CCN(CC#Cc2ccccc2)CC1CCO (stereo not drawn)	inconclusive: 7.82%	–
COc1ccc(-c2c3c(nc4sc5c(=O)[nH]c(C)nc5c24)CCC3)cc1	inconclusive: -0.415%	–
Cc1ccc2cc(CN(c3ccccc3)S(=O)(=O)c3ccccc3)c(=O)[nH]c2c1	–	inconclusive: 3.16 µM [falling, single point]
O=C(N/N=C/c1cc(Br)c(O)c(Br)c1O)c1ccc2c(c1)OCCO2	–	inconclusive: 5.01 µM [falling, partial curve]
COc1ccc(/C=N/Nc2cc(C)nc(N3CCOCC3)n2)c(OC)c1	inconclusive: -8.69%	–
CN1C(=O)/C(=C\C(=O)c2cccs2)c2ccccc21	inconclusive: 14.3%	–
COc1ccc(C2c3cc(OC)c(OC)cc3CCN2C2CC(=O)N(c3ccccc3)C2=O)cc1OC (stereo not drawn)	inconclusive: -12.5%	–
CC(CNC(=O)CCc1nnc(CCC2CCCCC2)o1)c1ccccc1 (stereo not drawn)	–	inconclusive: 3.55 µM [falling, partial curve, poor fit]
Cc1cc(C)nc(/N=C(\N)Nc2cccc([N+](=O)[O-])c2)n1	inactive: -0.0051%	–
COc1ccc(S(=O)(=O)N2CCOCC2)cc1NC(=O)CSc1ncccn1	inconclusive: -2.46%	–
CCOC(=O)c1cc(C)sc1NC(=S)Nc1ccccc1	–	inconclusive: 1.84 µM [rising, partial curve, poor fit]
C=CCN(Cc1ccc(OC)c(OC)c1)C(=O)c1cc2cc(F)ccc2[nH]1	inactive: -15.9%	–
C/C(N)=C(/C#N)C(=O)COC(=O)c1cc2c(s1)CCCC2	inconclusive: 10.5%	–
Cc1cc(C)c(C)c(S(=O)(=O)N2CCN(C(=O)CNC(=O)c3ccco3)CC2)c1C	inactive: 2.45%	–
Cc1ccc(OCc2n[nH]c(=S)n2Cc2ccccc2)cc1	inactive: 13.8%	–
CCN(CC(=O)Nc1ccc2c(c1)OCCO2)C(=O)CC(NC(C)=O)c1ccccc1 (stereo not drawn)	inactive: -11.8%	–
CCCCN(C(=O)C1CC(=O)N(Cc2ccc(C)cc2)C1)c1c(N)n(CCCC)c(=O)[nH]c1=O (stereo not drawn)	inactive: 6.82%	–
ClC(Cl)c1nnc(-c2ccccc2)c(-c2c[nH]c3ccccc23)n1	inactive: -13.8%	–
Cc1ccc(C)c(C(=O)NC(C)c2ccc(-n3ccnc3)cc2)c1 (stereo not drawn)	inactive: 8.06%	–
O=C(CNC(=O)COc1ccccc1)NCc1cccnc1	inactive: 0.623%	–
CCCCN(C)S(=O)(=O)c1ccc(C(=O)N=c2sc3cc(NC(C)=O)ccc3n2C)cc1	inactive: -0.357%	–
COC(=O)c1cc(S(=O)(=O)NC2CCC(C)CC2)cn1C (stereo not drawn)	inconclusive: 1.17%	–
CC(=O)/C=C/n1c(=S)oc2ccccc21	–	inconclusive: 2.06 µM [cytotoxic, partial curve]

Two entries drawn at random from the list so far, as already listed:
Structure (SMILES)	activity change, negative = inhibition	Potency
COC(=O)c1cc(S(=O)(=O)NC2CCC(C)CC2)cn1C (stereo not drawn)	inconclusive: 1.17%	–
CC(=O)/C=C/n1c(=S)oc2ccccc21	–	inconclusive: 2.06 µM [cytotoxic, partial curve]
